Reference: PubChem BioAssay AID493014 (National Center for Advancing Translational Sciences (NCATS), 2011)
The other results are listed elsewhere or left out. Further columns of the screen follow, without active or inactive calls. Compounds called inactive in the main read-out are mostly missing here. Words in brackets tell the shape of the fitted curve; partial curves, single points and poor fits give uncertain potencies.

Assay: qHTS Assay to Find Inhibitors of Chronic Active B-Cell Receptor Signaling
Conditions: ABC-DLBCL IkBa-CBG/CBR reporter, luminescence ratio (green luciferase fused to IkBa over red control in TMD8 lymphoma cells), 4 h
Outline: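 Concentration-response series (up to 46 uM) were applied to TMD8 dual-reporter cells for 4 h at 37C with doxycycline. Green/red ratio, after filter-overlap correction, defined %Activity; red signal alone was normalised to basal cells and zero luminescence.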

[1] = measured here: CBR red luminescence, cell number
[2] = measured here: IkBa-CBG green luminescence

Cc1cc(CSc2ccccc2)ccc1NC(=O)COc1ccccc1C
AC50 [1]: 0.13 µM [rising, full curve, poor fit]

Cc1c(-n2c(=S)[nH]c3ccccc3c2=O)c(=O)n(-c2ccccc2)n1C
AC50 [1]: 14.6 µM [rising, single point]

C=CCNC(=O)c1cc2c(=O)c3ccccc3oc2nc1C
AC50 [1]: 7.08 µM [falling, partial curve, poor fit]

CCn1nc(C(=O)Nc2ccc(N3CCOCC3)cc2)c2ccccc2c1=O
AC50 [1]: 7.31 µM [rising, partial curve, poor fit]

CCOc1cc(CNC(CC)CO)ccc1OCC(=O)Nc1cccc(C(F)(F)F)c1 (stereo not drawn)
AC50 [1]: 11.2 µM [falling, single point]

O=C(CSc1nc(=O)n(CCCN2CCOCC2)c2c1CCC2)Nc1ccc(F)cc1F
AC50 [1]: 25.9 µM [falling, partial curve, poor fit]

O=C(CN1C(=O)C(=O)N(Cc2ccco2)C1=O)c1c[nH]c2ccccc12
AC50 [1]: 5.62 µM [falling, full curve]

COC(=O)C1(Cc2cc(-c3ccc(OC)cc3OC)no2)CCN(C(=O)OC(C)(C)C)CC1
AC50 [1]: 35.5 µM [falling, single point]

CCOc1ccccc1C(=O)NCC(=O)Nc1ncccc1C
AC50 [1]: 11.6 µM [falling, partial curve]

O=C(Nc1ccccn1)c1ccc2c(c1)OCCO2
AC50 [1]: 10 µM [falling, partial curve, poor fit]

CN1CCN(C(=O)/C=C/c2ccc([N+](=O)[O-])cc2)CC1
AC50 [1]: 2.59 µM [rising, full curve]

CCOc1ncccc1C(=O)OCc1c(Cl)cccc1Cl
AC50 [1]: 32.6 µM [rising, partial curve, poor fit]

O=C1NC(=O)/C(=C\c2ccccc2OCc2ccccc2)S1
AC50 [1]: 2.82 µM [rising, partial curve]

O=Cc1ccc(OCCOc2ccc([N+](=O)[O-])cc2)cc1
AC50 [1]: 35.5 µM [rising, single point]

COc1cc(/C=C/C(=O)OCC(=O)c2ccc[nH]2)cc(OC)c1OC
AC50 [1]: 32.6 µM [rising, partial curve, poor fit]

CCCSc1nnc(-c2cnn(-c3ccccc3)c2-n2cccc2)n1C
AC50 [1]: 0.58 µM [falling, partial curve, poor fit]

O=C(Cc1ccc([N+](=O)[O-])cc1)NC1CCCCCC1
AC50 [1]: 5.62 µM [falling, single point]

Cc1noc(C)c1S(=O)(=O)Nc1ccc2c(c1)C(=O)N([C@H](C)CO)C[C@H](C)[C@@H](CN(C)S(=O)(=O)c1ccccc1)O2
AC50 [1]: 4.11 µM [rising, single point]

COC(=O)C1=CN(CCCN2CCCC2=O)C=C(C(=O)OC)C1c1ccccc1C(F)(F)F
AC50 [1]: 0.708 µM [falling, full curve, poor fit]

Cc1ccc2c(c1)c1c3n2CCN(C(=O)Cn2c(-c4ccccc4)noc2=O)C3CCC1 (stereo not drawn)
AC50 [1]: 1.12 µM [falling, full curve]

COc1ccc(C(=O)NCC(=O)OCC(=O)N2CC(C)OC(C)C2)cc1OC (stereo not drawn)
AC50 [1]: 4.61 µM [falling, partial curve, poor fit]

Cc1cc(C)c(OCC(=O)OCC(=O)NCc2cccs2)c(C)c1
AC50 [1]: 4.61 µM [rising, partial curve, poor fit]

CCCCCCCC(=O)OCC(=O)[C@@]1(O)CC[C@H]2[C@@H]3CCC4=CC(=O)CC[C@]4(C)[C@H]3[C@@H](O)C[C@@]21C
AC50 [1]: 0.0184 µM [rising, full curve, poor fit]

Cc1ccc(C2=NNC(=Nc3ccc(F)cc3)SC2)cc1
AC50 [1]: 5.01 µM [falling, single point]

CC(C)CC(=O)NC(c1ccccc1)c1c(O)ccc2ccccc12 (stereo not drawn)
AC50 [1]: 35.5 µM [falling, single point]

COc1cccc(/C=N/NC(=O)c2ccc(CN3c4cccc5cccc(c45)S3(=O)=O)cc2)c1
AC50 [1]: 13 µM [rising, partial curve, poor fit]
AC50 [2]: 25.9 µM [falling, single point]

O=C(Nc1ncc2c(n1)-c1ccccc1CC2)c1ccccc1
AC50 [1]: 12.6 µM [falling, partial curve, poor fit]

O=C(O)c1cccc(N=NN2CCCCCC2)c1
AC50 [1]: 9.2 µM [falling, partial curve]

CCOc1cccc(C(=O)NC(=S)Nc2ccc(N3CCCC3)cc2)c1
AC50 [1]: 2.59 µM [falling, full curve, poor fit]

CC(=O)Nc1ccc(N2CCN(Cc3ccccc3F)CC2)cc1
AC50 [1]: 0.0651 µM [rising, full curve, poor fit]

O=C(CSc1ccccc1)Nc1nc2ccccc2[nH]1
AC50 [1]: 10.3 µM [falling, partial curve]

CCS(=O)(=O)Nc1ccc(C2=NN(C(=O)c3ccco3)C(c3cccs3)C2)cc1 (stereo not drawn)
AC50 [1]: 11.2 µM [falling, partial curve]

Cc1cccc(C(=O)NC(=S)NNC(=O)COc2c(C)cccc2C)c1
AC50 [1]: 5.8 µM [rising, partial curve, poor fit]

O/N=C/c1ccc(-c2ccccc2OC(F)(F)F)o1
AC50 [1]: 12.6 µM [rising, partial curve, poor fit]

C[n+]1cc[nH]c1SCC(=O)c1ccccc1
AC50 [1]: 23.1 µM [falling, partial curve, poor fit]

CCOC(=O)c1c(NC(=O)C2=C(C)NC(=S)NC2c2ccccc2C(F)(F)F)sc(C)c1C (stereo not drawn)
AC50 [1]: 16.4 µM [rising, partial curve]

O=C(Nc1ccc2c(c1)OCCO2)c1ccc(Br)c(S(=O)(=O)N2CCOCC2)c1
AC50 [1]: 6.31 µM [rising, partial curve, poor fit]

CNC(=O)CC(CC(=O)c1ccccc1)c1ccccc1 (stereo not drawn)
AC50 [1]: 3.66 µM [falling, partial curve, poor fit]

Cc1ccc(C(=O)Oc2ccc(Cl)c3cccnc23)cc1[N+](=O)[O-]
AC50 [1]: 7.08 µM [rising, partial curve]
AC50 [2]: 7.94 µM [falling, partial curve]

CN(C)S(=O)(=O)Oc1cccc(C(=O)Nc2ccccc2Cl)c1
AC50 [1]: 22.4 µM [falling, single point]

CC(=O)Nc1ccc(Nc2nc(C)c([N+](=O)[O-])c(Nc3ccc(NC(C)=O)cc3)n2)cc1
AC50 [1]: 0.206 µM [falling, full curve]

CCC1CCCCN1CC(=O)c1c(C)[nH]c2ccc(OC)cc12 (stereo not drawn)
AC50 [1]: 3.16 µM [falling, single point]

Cc1ccc2nc(Nc3nc(CSc4nnc(C)s4)cc(=O)[nH]3)nc(C)c2c1
AC50 [1]: 2.51 µM [falling, full curve, poor fit]

CCOc1ccc(C2N(c3cc(Cl)ccc3OC)C(=O)C3CCCN32)cc1OC (stereo not drawn)
AC50 [1]: 14.1 µM [rising, partial curve, poor fit]

C/C(=N\NC(=O)COc1ccc2ccccc2c1)c1cccs1
AC50 [1]: 22.4 µM [rising, single point]

COCCNS(=O)(=O)c1ccc(-c2ccc(S(=O)(=O)NCCOC)cc2)cc1
AC50 [1]: 5.62 µM [rising, partial curve, poor fit]

N/C(=N\c1nc2ccccc2o1)NC(=O)c1ccccc1F
AC50 [1]: 2.82 µM [falling, partial curve]

CC(C)N(C(=O)[C@H]1C[C@H](CC(=O)NCC23CC4CC(CC(C4)C2)C3)C(=O)N2CCc3c([nH]c4ccc(Cl)cc34)[C@]12C)C(C)C
AC50 [1]: 6.51 µM [rising, partial curve, poor fit]

COc1ccc(-c2nnc(SCC(=O)Nc3cc(F)ccc3C)o2)cc1
AC50 [1]: 0.092 µM [falling, full curve, poor fit]

CCN(CC)CCN(C(=O)/C=C/c1cccs1)c1nc2ccc(F)cc2s1
AC50 [1]: 12.6 µM [falling, single point]

C/C(CC(=O)Nc1ccc(Cl)c(Cl)c1)=N\NC(N)=S
AC50 [1]: 5.62 µM [falling, partial curve, poor fit]

CCC(C)c1ccc(OCc2ccc(C(=O)O)o2)cc1 (stereo not drawn)
AC50 [1]: 10 µM [falling, partial curve, poor fit]

CN(CCCNC(=O)c1ccc(N2CCCC2=O)cc1)c1ccccc1
AC50 [1]: 8.2 µM [rising, partial curve, poor fit]

COc1cccc(NC(=O)Nc2ccc3c(c2)OCO3)c1
AC50 [1]: 10 µM [falling, partial curve]

CCOc1cc(/C=C2/NC(=O)N(CC(=O)OC)C2=O)ccc1OC
AC50 [1]: 5.01 µM [falling, partial curve, poor fit]

COc1cc2c(C(=O)N3CCN(c4cccc(C(F)(F)F)c4)CC3)cn(CC(C)C)c(=O)c2cc1OC
AC50 [1]: 11.2 µM [falling, partial curve, poor fit]

O=C(Nc1ccc2c(c1)N(S(=O)(=O)c1cccs1)CCC2)c1c(F)cccc1F
AC50 [1]: 20.6 µM [rising, partial curve, poor fit]

COc1ccc(CCC(=O)OCC(=O)Nc2c(C)nn(-c3ccccc3)c2C)cc1
AC50 [1]: 0.651 µM [rising, full curve, poor fit]

COc1cccc(Nc2nc(C)nc3c2oc2ccccc23)c1
AC50 [1]: 1.58 µM [falling, full curve, poor fit]

CC(=O)Nc1ccc(NC(=O)C(C)OC(=O)C2(c3ccc(Cl)cc3)CCCC2)cc1 (stereo not drawn)
AC50 [1]: 0.58 µM [rising, full curve, poor fit]

COCCCn1c(-c2ccccc2Cl)n[nH]c1=S
AC50 [1]: 2.91 µM [rising, partial curve, poor fit]
